According to publication PMC11655532:
No constants are given. Whether binding was seen depends on the method and setting. Binding seen in cells or lysates may run through a third protein. Some entries that bind do so weakly or less than the wild type.

Protein sequences, listed by entry. Tags and fused reporters are not part of them.
UniProt Q9UBL6: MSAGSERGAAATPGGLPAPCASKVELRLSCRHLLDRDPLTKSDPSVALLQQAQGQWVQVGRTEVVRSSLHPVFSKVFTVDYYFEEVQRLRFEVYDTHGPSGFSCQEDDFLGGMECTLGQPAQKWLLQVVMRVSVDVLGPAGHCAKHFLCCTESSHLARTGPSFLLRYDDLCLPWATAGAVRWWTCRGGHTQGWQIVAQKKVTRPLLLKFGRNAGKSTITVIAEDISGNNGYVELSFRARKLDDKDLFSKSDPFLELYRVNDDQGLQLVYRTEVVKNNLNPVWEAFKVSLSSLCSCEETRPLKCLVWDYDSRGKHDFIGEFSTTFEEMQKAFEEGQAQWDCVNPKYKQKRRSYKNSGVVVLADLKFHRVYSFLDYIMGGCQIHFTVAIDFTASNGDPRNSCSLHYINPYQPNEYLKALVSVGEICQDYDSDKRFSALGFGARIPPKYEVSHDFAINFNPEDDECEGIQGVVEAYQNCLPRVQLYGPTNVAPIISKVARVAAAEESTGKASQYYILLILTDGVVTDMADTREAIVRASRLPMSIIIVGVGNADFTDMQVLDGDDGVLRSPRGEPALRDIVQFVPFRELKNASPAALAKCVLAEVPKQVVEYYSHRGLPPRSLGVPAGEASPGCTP

Legend:
[1] = target: CPNE7 (copine7) (human) (UniProt Q9UBL6); test: co-IP; cells not given; with or without gramicidin at 8 nM; Western blot
[2] = target: CPNE7 (copine7) (human) (UniProt Q9UBL6); test: co-IP; HCT116 cell lysate (RIPA buffer with PMSF), 2 ug antibody overnight at 4°C, Protein A/G beads, Western blot
[3] = target: CPNE7 (copine7) (human) (UniProt Q9UBL6); test: co-IP; 293T cell lysate (RIPA buffer with PMSF), 2 ug antibody overnight at 4°C, Protein A/G beads, Western blot

binding [1]: binds | binding [2]: binds | binding [3]: binds
B1: NONO (p54/nrb) (protein, UniProt Q15233 1-471)
chain: MQSNKTFNLEKQNHTPRKHHQHHHQQQHHQQQQQQPPPPPIPANGQQASSQNEGLTIDLKNFRKPGEKTFTQRSRLFVGNLPPDITEEEMRKLFEKYGKAGEVFIHKDKGFGFIRLETRTLAEIAKVELDNMPLRGKQLRVRFACHSASLTVRNLPQYVSNELLEEAFSVFGQVERAVVIVDDRGRPSGKGIVEFSGKPAARKALDRCSEGSFLLTTFPRPVTVEPMDQLDDEEGLPEKLVIKNQQFHKEREQPPRFAQPGSFEYEYAMRWKALIEMEKQQQDQVDRNIKEAREKLEMEMEAARHEHQVMLMRQDLMRRQEELRRMEELHNQEVQKRKQLELRQEEERRRREEEMRRQQEEMMRRQQEGFKGTFPDAREQEIRMGQMAMGGAMGINNRGAMPPAPVPAGTPAPPGPATMMPDGTLGLTPPTTERFGQAATMEGIGAIGGTPPAFNRAAPGAEFAPNKRRRY
